The target of one assay is YFP-p53 (UniProt P04637). Kind of assay: co-IP; exogenous co-immunoprecipitation from HEK293T cells transfected with YFP-p53 and EGFP-SIRT6; Western blot.
Assay [1] has as its target SIRT6 (human (endogenous in HCT116)) (UniProt Q8N6T7). Briefly: co-IP; endogenous co-immunoprecipitation from HCT116 cell lysate; about 6 ug of p53 antibodies to 1 ml lysate, 2 h at ambient temperature, protein A-agarose, 5 washes, Western blot.
Assay [2] deals with p53 (human (endogenous in HCT116)) (UniProt P04637). The description is as above.

Protein sequences, listed by entry. Tags and fused reporters are not part of them.
UniProt P09874: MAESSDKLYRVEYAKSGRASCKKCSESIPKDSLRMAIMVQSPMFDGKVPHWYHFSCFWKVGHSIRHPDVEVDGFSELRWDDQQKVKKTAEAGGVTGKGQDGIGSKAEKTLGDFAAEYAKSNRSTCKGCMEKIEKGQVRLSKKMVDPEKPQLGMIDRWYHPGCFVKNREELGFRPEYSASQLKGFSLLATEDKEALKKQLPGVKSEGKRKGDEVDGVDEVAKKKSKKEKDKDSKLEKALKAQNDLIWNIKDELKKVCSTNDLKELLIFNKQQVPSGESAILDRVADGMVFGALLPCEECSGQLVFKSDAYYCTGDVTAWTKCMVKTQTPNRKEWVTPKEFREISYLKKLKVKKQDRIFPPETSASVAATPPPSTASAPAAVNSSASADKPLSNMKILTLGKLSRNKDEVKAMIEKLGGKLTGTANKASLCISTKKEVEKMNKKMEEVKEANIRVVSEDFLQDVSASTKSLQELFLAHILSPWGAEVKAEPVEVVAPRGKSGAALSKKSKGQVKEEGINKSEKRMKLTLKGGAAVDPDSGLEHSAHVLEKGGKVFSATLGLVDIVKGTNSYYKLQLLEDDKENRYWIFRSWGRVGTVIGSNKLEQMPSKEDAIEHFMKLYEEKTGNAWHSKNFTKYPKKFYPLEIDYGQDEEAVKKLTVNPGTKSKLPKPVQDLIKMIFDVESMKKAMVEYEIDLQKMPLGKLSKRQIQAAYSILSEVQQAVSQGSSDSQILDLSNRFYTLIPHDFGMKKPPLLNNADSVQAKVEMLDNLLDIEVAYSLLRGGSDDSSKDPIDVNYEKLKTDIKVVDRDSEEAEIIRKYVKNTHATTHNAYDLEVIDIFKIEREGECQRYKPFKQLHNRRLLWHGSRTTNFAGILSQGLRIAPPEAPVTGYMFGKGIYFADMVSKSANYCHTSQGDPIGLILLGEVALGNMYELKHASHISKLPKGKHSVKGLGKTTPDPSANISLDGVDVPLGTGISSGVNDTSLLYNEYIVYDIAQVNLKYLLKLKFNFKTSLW

Results are given in words; binding and its absence hold for the method and conditions named. Binding seen in cells or lysates may run through a third protein. Some binding calls cover weakened binding; strength is not graded here.

For the substance EGFP-SIRT6 (from UniProt Q8N6T7 1-355), the binding entry in the assay with YFP-p53 is listed as “binds”.
Turning to “Poly [ADP-Ribose] polymerase 1 (from UniProt P09874 1-1014)”, the binding entry in assay [1] is “binds”.
In the case of SIRT6 (from UniProt Q8N6T7 1-355), in assay [2], the binding entry is “binds”.

The values are drawn from paper PMC9205131.
